Data from publication PMC5304334, “Antifouling potential of Nature-inspired sulfated compounds” (Scientific Reports, 2017).

System: Mytilus galloprovincialis plantigrades
Assay: Anti-settlement bioassay with mussel plantigrades (effectiveness and mortality)
Assay type: in vivo
Conditions: for Therapeutic ratio LC50/EC50 (as printed in text with μM): LC50 taken as >500 μM
Method: M. galloprovincialis juvenile (0.5 cm shell length approximately) aggregates were collected from mussel beds from the intertidal rocky shore, during low neap tides at Memória beach, Matosinhos, Portugal (41°13′59″N; 8°43′28″W), and immediately transported to the laboratory. M. galloprovincialis plantigrade post-larvae (0.5–2 mm) were screened among the small mussel aggregates in a binocular magnifier (Olympus SZX2-ILLT), gently washed with filtered seawater to remove organic debris and sand particles and isolated in a petri dish with filtered seawater immediately before the bioassays.
For the screening bioassay, competent M. galloprovincialis plantigrades (showing exploring behavior, ie, moving their foot searching for the appropriate substrate to settle) were selected and exposed to the series of sulfated compounds 1–13 at two concentrations (250 and 50 μM) in 24-well microplates for 15 h, at 18 ± 1 °C, in the darkness. Bioassays time frame was selected based on preliminary bioassays to ensure that the response measured is reflecting the compounds effect. Test solutions were prepared in filtered seawater (previously treated by UV light, and carbon filters and mechanically filtered with […] filter before use) and obtained by dilution of the compounds stock solutions (50 mM) in ultra-pure water. Four well replicates were used per condition with five plantigrades per well and 2.5 mL of test solution. A negative control, with ultra-pure water was included in all bioassays, as well as a positive control with 5 μM CuSO4 (a potent AF agent). At the end of the exposure period, the anti-settlement activity was determined by the presence/absence of byssal threads produced by each individual efficiently attached for all the conditions tested.
Data from the anti-settlement and antibacterial screenings were analyzed using a one-way analysis of variance (ANOVA) followed by a Dunnett test against the control (p < 0.05). […]

Row | SMILES | Therapeutic ratio LC50/EC50 (as printed in text with μM) [µM] | LC50/EC50, therapeutic ratio (LC50 of sulfated compounds taken as >500 μM)
1 | O=c1c2ccc(O[C@@H]3O[C@H](COS(=O)(=O)O)[C@@H](OS(=O)(=O)O)[C@H](OS(=O)(=O)O)[C@H]3OS(=O)(=O)O)cc2oc2cc(O[C@@H]3O[C@H](COS(=O)(=O)O)[C@@H](OS(=O)(=O)O)[C@H](OS(=O)(=O)O)[C@H]3OS(=O)(=O)O)ccc12 [Compound 6] | > 21.56 | 
2 | O=C(O)c1cc(OS(=O)(=O)O)c(OS(=O)(=O)O)c(OS(=O)(=O)O)c1 [Compound 12, gallic acid persulfate] | > 26.61 | 
3 | N#Cc1c(-c2ccc(Cl)cc2)[nH]c(C(F)(F)F)c1Br [ECONEA®] |  | 26.86
